Results are given in words; binding and its absence hold for the method and conditions named. Binding seen in cells or lysates may run through a third protein. Some results given as binding are weak or reduced against the parent protein; the word gives no strength.
Target: EGFP-TEV-sNASP (human) (UniProt P49321)
Test: co-IP + co-sedimentation; GFP-Trap pull-down of eGFP-sNASP from transiently transfected HEK293-F cells, TEV release, 4–20% glycerol gradient (240,000 × g, 14 hr, 4°C); SDS-PAGE, silver stain and Western blot of fractions

binding: binds
B1: UBR7 (protein, UniProt Q8N806 1-425)
chain: MAGAEGAAGRQSELEPVVSLVDVLEEDEELENEACAVLGGSDSEKCSYSQGSVKRQALYACSTCTPEGEEPAGICLACSYECHGSHKLFELYTKRNFRCDCGNSKFKNLECKLLPDKAKVNSGNKYNDNFFGLYCICKRPYPDPEDEIPDEMIQCVVCEDWFHGRHLGAIPPESGDFQEMVCQACMKRCSFLWAYAAQLAVTKISTEDDGLVRNIDGIGDQEVIKPENGEHQDSTLKEDVPEQGKDDVREVKVEQNSEPCAGSSSESDLQTVFKNESLNAESKSGCKLQELKAKQLIKKDTATYWPLNWRSKLCTCQDCMKMYGDLDVLFLTDEYDTVLAYENKGKIAQATDRSDPLMDTLSSMNRVQQVELICEYNDLKTELKDYLKRFADEGTVVKREDIQQFFEEFQSKKRRRVDGMQYYCS

Reference: paper PMC9560165
